From article PMC5688124
Results are given in words; binding and its absence hold for the method and conditions named. In cells and extracts the contact can be indirect. Here binding means that the protein was enriched with, or labelled near, the bait; the list need not be complete.

Amino acid sequences for entries named in this document (tags omitted).
UniProt Q9UKT5: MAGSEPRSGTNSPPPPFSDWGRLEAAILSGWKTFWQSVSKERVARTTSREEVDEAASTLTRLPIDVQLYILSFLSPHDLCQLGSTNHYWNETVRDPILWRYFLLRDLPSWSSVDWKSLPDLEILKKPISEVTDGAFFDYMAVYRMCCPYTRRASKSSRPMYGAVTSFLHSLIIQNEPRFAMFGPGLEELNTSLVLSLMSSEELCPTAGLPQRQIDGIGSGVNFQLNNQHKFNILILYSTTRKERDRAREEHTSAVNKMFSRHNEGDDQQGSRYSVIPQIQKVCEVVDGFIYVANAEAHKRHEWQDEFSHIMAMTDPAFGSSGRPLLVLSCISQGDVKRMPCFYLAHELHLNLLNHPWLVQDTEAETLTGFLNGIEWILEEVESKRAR
UniProt Q61584: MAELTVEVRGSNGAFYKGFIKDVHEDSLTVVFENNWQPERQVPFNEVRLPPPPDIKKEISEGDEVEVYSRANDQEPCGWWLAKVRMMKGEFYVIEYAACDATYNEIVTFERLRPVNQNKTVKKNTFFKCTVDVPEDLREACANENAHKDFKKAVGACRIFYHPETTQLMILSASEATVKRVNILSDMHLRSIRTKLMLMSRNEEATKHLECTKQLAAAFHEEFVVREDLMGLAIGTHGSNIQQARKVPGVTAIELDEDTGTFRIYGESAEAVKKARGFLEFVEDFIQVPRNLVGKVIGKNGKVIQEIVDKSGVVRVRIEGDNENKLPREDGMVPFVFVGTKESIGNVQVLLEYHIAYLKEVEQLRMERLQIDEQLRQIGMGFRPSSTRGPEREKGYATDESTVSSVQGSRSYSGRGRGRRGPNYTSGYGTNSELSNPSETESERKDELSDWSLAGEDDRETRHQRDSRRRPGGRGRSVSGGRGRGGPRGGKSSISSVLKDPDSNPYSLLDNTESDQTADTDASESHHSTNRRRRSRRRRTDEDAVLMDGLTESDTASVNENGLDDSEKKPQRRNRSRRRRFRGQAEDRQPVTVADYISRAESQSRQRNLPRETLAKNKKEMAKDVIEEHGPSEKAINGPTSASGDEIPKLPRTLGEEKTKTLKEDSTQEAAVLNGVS

Target: Flag-Fbxo4 (in reconstituted Fbxo4−/− MEFs) (UniProt Q9UKT5)
Assay: affinity purification with mass spectrometry; Fbxo4−/− MEFs reconstituted with Flag-Fbxo4 or Flag-Fbxo4ΔF, treated +/− MG-132 for 6 h, immuno-affinity purification, co-purified proteins identified by LC-MS/MS

binding: binds
Substance: Fxr1 (co-purified from MEFs) (from UniProt Q61584 1-677)
